Assay results: PMC10482945
These are yes or no findings as the source states them, for the method shown. Binding seen in cells or lysates may run through a third protein. Some results given as binding are weak or reduced against the parent protein; the word gives no strength.

The chains behind the UniProt entries cited, without tags or fusion partners. Where a name states a change or a piece, a line headed by the entry shows the natural chain unless it says otherwise.
UniProt Q96SB3: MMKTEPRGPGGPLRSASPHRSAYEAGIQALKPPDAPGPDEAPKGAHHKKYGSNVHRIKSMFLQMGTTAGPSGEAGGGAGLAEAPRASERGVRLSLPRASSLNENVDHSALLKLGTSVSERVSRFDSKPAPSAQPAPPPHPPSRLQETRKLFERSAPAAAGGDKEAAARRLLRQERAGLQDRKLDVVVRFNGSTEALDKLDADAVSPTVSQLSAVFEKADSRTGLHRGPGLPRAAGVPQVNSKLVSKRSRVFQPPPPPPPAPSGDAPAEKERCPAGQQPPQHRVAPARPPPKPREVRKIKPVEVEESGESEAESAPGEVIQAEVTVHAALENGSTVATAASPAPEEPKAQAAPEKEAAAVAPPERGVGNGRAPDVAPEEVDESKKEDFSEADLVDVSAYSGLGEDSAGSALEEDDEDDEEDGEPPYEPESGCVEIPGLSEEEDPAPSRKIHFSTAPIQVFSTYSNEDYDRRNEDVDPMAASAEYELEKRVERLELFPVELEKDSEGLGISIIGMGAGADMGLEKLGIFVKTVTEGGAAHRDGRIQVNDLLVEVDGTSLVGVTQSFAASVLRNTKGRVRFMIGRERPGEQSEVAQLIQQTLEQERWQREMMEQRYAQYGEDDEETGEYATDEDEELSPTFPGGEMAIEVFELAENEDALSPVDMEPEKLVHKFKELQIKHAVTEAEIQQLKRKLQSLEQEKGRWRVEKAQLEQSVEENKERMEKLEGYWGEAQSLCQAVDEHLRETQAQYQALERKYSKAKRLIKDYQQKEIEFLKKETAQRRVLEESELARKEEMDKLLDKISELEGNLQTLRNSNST
UniProt P62136: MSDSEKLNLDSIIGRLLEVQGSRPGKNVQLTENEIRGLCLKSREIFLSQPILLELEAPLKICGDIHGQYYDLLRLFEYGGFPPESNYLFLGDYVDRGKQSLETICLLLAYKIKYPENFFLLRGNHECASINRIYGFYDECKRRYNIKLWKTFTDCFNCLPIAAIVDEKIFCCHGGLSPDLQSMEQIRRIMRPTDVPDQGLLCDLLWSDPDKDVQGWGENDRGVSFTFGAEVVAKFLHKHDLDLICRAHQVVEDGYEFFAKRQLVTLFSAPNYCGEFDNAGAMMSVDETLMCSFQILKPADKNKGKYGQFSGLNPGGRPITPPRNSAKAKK
UniProt P19484: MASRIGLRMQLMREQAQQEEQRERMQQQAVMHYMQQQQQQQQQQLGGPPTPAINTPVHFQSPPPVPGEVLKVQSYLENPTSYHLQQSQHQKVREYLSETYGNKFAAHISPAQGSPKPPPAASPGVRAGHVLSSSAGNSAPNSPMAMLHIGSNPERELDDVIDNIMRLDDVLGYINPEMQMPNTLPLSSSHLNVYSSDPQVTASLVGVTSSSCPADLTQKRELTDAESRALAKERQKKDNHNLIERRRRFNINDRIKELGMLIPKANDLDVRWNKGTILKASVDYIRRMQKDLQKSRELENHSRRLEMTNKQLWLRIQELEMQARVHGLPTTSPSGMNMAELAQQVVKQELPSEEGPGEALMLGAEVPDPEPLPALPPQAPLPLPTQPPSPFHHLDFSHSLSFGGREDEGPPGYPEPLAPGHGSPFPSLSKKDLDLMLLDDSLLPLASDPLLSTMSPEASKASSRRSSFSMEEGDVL
UniProt Q9H5I1: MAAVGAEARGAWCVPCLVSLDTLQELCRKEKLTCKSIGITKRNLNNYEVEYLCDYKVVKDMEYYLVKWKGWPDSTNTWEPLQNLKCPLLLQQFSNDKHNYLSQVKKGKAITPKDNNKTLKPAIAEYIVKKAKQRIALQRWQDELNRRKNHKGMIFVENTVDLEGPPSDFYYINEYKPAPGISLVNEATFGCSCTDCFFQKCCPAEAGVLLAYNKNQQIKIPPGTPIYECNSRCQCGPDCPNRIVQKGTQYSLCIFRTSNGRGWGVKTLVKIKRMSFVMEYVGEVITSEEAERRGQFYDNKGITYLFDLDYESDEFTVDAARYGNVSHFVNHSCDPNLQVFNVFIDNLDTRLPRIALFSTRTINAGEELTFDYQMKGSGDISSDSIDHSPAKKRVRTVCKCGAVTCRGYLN

Experiments:
[1] = target: GST-PPP1R9B expressed in HEK293T cells (UniProt Q96SB3); assay: co-IP; HEK293T cells cotransfected with tagged constructs, NP-40 lysate, primary antibody and Protein A/G beads at 4 °C, Western blot
[2] = target: GST-PPP1R9B expressed in nucleus pulposus cells (UniProt Q96SB3); assay: co-IP; NPCs cotransfected with tagged constructs, with or without TBHP, NP-40 lysate, primary antibody and Protein A/G beads at 4 °C, Western blot
[3] = target: His-PPP1CA (wild-type) expressed in HEK293T cells (UniProt P62136); assay: co-IP; HEK293T cells cotransfected with tagged constructs, NP-40 lysate, primary antibody and Protein A/G beads at 4 °C, Western blot
[4] = target: Flag-TFEB expressed in HEK293T cells (UniProt P19484); assay: as above
[5] = target: protein phosphatase 1 catalytic subunit alpha (PPP1CA), endogenous in nucleus pulposus cells (human (endogenous in human NPCs)) (UniProt P62136); assay: co-IP; endogenous proteins in NPC lysate (NP-40), primary antibody and Protein A/G beads at 4 °C, Western blot; cells untreated or treated with TBHP, MG132, si-PPP1CA, si-PPP1R9B, si-SUV39H2 or SUV39H2 overexpression
[6] = target: transcription factor EB (TFEB), endogenous in nucleus pulposus cells (human (endogenous in human NPCs)) (UniProt P19484); assay: as above

## His-PPP1CA (wild-type) expressed in HEK293T cells (from UniProt P62136 1-330) (enzyme)
[1]
  binding: binds

## His-PPP1CA (wild-type) expressed in nucleus pulposus cells (from UniProt P62136 1-330) (enzyme)
[2]
  binding: binds

## Mbp-SUV39H2 expressed in HEK293T cells (from UniProt Q9H5I1 1-410) (enzyme)
[3]
  binding: binds

## GST-PPP1R9B expressed in HEK293T cells (from UniProt Q96SB3 1-817)
[4]
  binding: binds
[3]
  binding: binds

## protein lysine methyltransferase suppressor of variegation 3-9 homologue 2 (SUV39H2), endogenous in nucleus pulposus cells (from UniProt Q9H5I1 1-410) (enzyme)
[5]
  binding: binds

## protein phosphatase 1 regulatory subunit 9B (PPP1R9B), endogenous in nucleus pulposus cells (from UniProt Q96SB3 1-817)
[6]
  binding: binds
[5]
  binding: binds

## His-PPP1CA K141R (KR mutant) expressed in nucleus pulposus cells (from UniProt P62136 1-330) (enzyme)
[2]
  binding: binds

## His-PPP1CA K141R (KR, methyl-deficient mutant) expressed in HEK293T cells (from UniProt P62136 1-330) (enzyme)
[1]
  binding: binds
